Screening data, single-dose tests

Measurements from “University of Dundee, Small-Polar-MMV Screening Library” (2021), ChEMBL document CHEMBL3988442.

Mtb glucose medium: 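Growth of Mycobacterium tuberculosis over 3 days (7H9 medium with glucose and tyloxapol); the read-out is not stated. Compounds at 50 µM. The record gives no direction; compounds that gave an IC50 in retests scored well above the rest, so higher reads as more growth inhibition. About 69,000 compounds were tested under these conditions; 1.1% (about 760) showed 50% or more at least once.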
Mtb cholesterol medium: 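Whole-cell growth test on Mycobacterium tuberculosis, read after 4 days in a medium based on cholesterol and the lipid DPPC; the read-out is not stated. Tested at 50 µM. The record gives no direction; compounds that gave an IC50 in retests scored well above the rest, so higher reads as more growth inhibition. Of about 69,000 compounds tested this way, about 370 (0.54%) reached 50% or more in at least one test.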

Values are the deposited “Percent Effect”, in %.
How 0% and 100% were set is not recorded. Most values in the screen are low, and negative values occur.
The compounds are a random part of those screened.
Two or more numbers in one place are separate tests of the same structure; such repeats can differ widely.

Result for c1nc(N2CCCC2Cn2cncn2)c2sccc2n1 (centres unmarked) was Mtb glucose medium: 0.8485%; Mtb cholesterol medium: -21.59%.
Result for Cn1cc(C2CCCN2CCCc2nc(-c3cccs3)no2)cn1 (centres unmarked) was Mtb glucose medium: 41.55%; Mtb cholesterol medium: 19.28%.
Result for [H][C@@]12C[C@@H](OCc3ccccn3)CN1CCN(C(=O)c1ccsc1)C2 was Mtb glucose medium: -39.73%; Mtb cholesterol medium: -3.992% & -5.293%.
Result for CNC(=O)CN1CCOCC12CCN(C(=O)c1ccc(C)cc1)CC2.O=C(O)C(F)(F)F was Mtb glucose medium: -2.13%; Mtb cholesterol medium: 10.43%.
Result for Cc1nccn1CCC1CCCCN1Cc1cnc(N(C)C)nc1 (centres unmarked) was Mtb glucose medium: -15.37%; Mtb cholesterol medium: 1.416% & -8.097%.
Result for Cc1c(CN2CCOCC2)c(O)n(CCO)c(=O)c1C#N was Mtb glucose medium: -74.18%; Mtb cholesterol medium: -66.51%.
Result for Cc1cccc(CNCC2COC3(CCCC3)O2)c1C (centres unmarked) was Mtb glucose medium: -25.74%; Mtb cholesterol medium: -5.733%.
Result for CCCNC(=O)Cn1nc(C)c2cnn(C(C)(C)C)c2c1=O was Mtb glucose medium: -20.71%; Mtb cholesterol medium: -19.95%.
Result for Cc1ccc(C(=O)NCCC2CN(c3cnn(C)c(=O)c3)CCO2)s1 (centres unmarked) was Mtb glucose medium: -17.89%; Mtb cholesterol medium: -0.147% & -0.7096%.
Result for C[C@@H]1CN(c2cc(N3CCC(O)CC3)ncn2)C[C@@]1(O)C1CC1 was Mtb glucose medium: -16.53%; Mtb cholesterol medium: -22.06%.
Result for Cc1ccccc1OC1CCN(C(=O)c2c[nH]c(=O)[nH]c2=O)CC1 was Mtb glucose medium: -5.237%; Mtb cholesterol medium: 1.968% & -4.735%.
Result for CC(C)c1cnc(CN(C)C2CCN(CCCc3cnn(C)c3)C2)o1 (centres unmarked) was Mtb glucose medium: -19.18%; Mtb cholesterol medium: -19.43%.
Result for CC(C)Cc1cc(NC(=O)c2cc(Cl)c[nH]2)n(C)n1 was Mtb glucose medium: 56.99%; Mtb cholesterol medium: 40.2%.
Result for Cc1cc(N2CCN(C3CCOCC3)CC(C(=O)N(C)C)C2)ncn1 (centres unmarked) was Mtb glucose medium: -13.1%; Mtb cholesterol medium: -11.85%.
Result for Cc1nc(O)c2nnn(C[C@H]3CCCN3C(=O)c3ccccc3C)c2n1 was Mtb glucose medium: 12.08%; Mtb cholesterol medium: -9.014%.
Result for CC(C)(C)c1coc([C@@H]2COCCN2Cc2ncc[nH]2)n1 was Mtb glucose medium: -6.046% & -6.561%; Mtb cholesterol medium: -31.91%.
Result for Cc1cc2nc(C(C)C)cc(N3CCC(O)CC3)n2n1 was Mtb glucose medium: 3.22%; Mtb cholesterol medium: -14.53%.
Result for c1cc(CNCC2CNc3ccnn3C2)cc(N2CCOCC2)n1 (centres unmarked) was Mtb glucose medium: 11.64%; Mtb cholesterol medium: -5.459%.
Result for Cc1cccc(CN2CCCCC2c2n[nH]cc2-c2cc(C)no2)c1.Cl (centres unmarked) was Mtb glucose medium: 8.051%; Mtb cholesterol medium: 8.72%.
Result for O=C(CCn1ccnc1)N1C[C@@H](O)[C@H](Oc2cccc(F)c2)C1 was Mtb glucose medium: -10.47%; Mtb cholesterol medium: -20.98%.
Result for CSC1(CNc2ccc(Br)cn2)CCOCC1 was Mtb glucose medium: 27.43%; Mtb cholesterol medium: 10.34%.
Result for CCNC(=O)N1CCC(NC(=O)NCCc2cc3ccccc3o2)C1 (centres unmarked) was Mtb glucose medium: -13.24%; Mtb cholesterol medium: -10.75%.
Result for Cc1cc(NS(=O)(=O)c2c[nH]c3ncccc23)no1 was Mtb glucose medium: 10.52%; Mtb cholesterol medium: -22.03%.
Result for Cc1ccc(F)c(NC(=O)CCC(=O)N(C)Cc2nc(C)c[nH]2)c1 was Mtb glucose medium: -6.406% & -9.898%; Mtb cholesterol medium: 9.98%.
Result for FC(F)(F)CN1CCC(CCNc2ncccn2)CC1 was Mtb glucose medium: 47.86% & -0.6217%; Mtb cholesterol medium: 5.861%.
Result for Cc1csc(N2CCCN(C(=O)C3(C#N)CCCCC3)CC2)n1 was Mtb glucose medium: -19.11%; Mtb cholesterol medium: -10.02%.
Result for c1ccc(-c2nccc(N3CCc4c(ncn4C4CC4)C3)n2)cc1 was Mtb glucose medium: 32.27%; Mtb cholesterol medium: 16.77%.
Result for Cc1cc(C)n(CCNCc2cc(-c3ccccc3)c[nH]c2=O)n1 was Mtb glucose medium: 14.32%; Mtb cholesterol medium: 1.124% & -3.546%.
Result for O=C(NC1CCCN(c2ccc(OC(F)F)cc2)C1)c1c[nH]nn1 (centres unmarked) was Mtb glucose medium: 13.61%; Mtb cholesterol medium: -13.08%.
Result for CCN(CC)Cc1nc2c(o1)CN(S(=O)(=O)c1cccs1)C2.O=C(O)C(F)(F)F was Mtb glucose medium: 25.31%; Mtb cholesterol medium: -7.654%.
Result for COc1ncccc1CNC(=O)c1ccco1 was Mtb glucose medium: -1.039%; Mtb cholesterol medium: -6.057%.
Result for COCCN(Cc1ccccn1)C(=O)Nc1cccnc1N1CCCC1 was Mtb glucose medium: -1.641% & -5.164%; Mtb cholesterol medium: 0.3398%.
Result for CC(C)CNC(=O)CN(CC(=O)NCC(C)C)S(C)(=O)=O was Mtb glucose medium: -8.446%; Mtb cholesterol medium: -5.06%.
Result for O=C(Cc1ccccn1)N1CCN(C(=O)CC2CCCC2)CC1 was Mtb glucose medium: -3.979%; Mtb cholesterol medium: 0.4007%.
Result for COc1ccc2c(c1)CCCC2CC(=O)NCC(=O)O (centres unmarked) was Mtb glucose medium: -6.476% & -3.668%; Mtb cholesterol medium: 4.228%.
Result for CC(C)S(=O)(=O)C(C)C(=O)NCc1ccccc1COc1ccccc1 (centres unmarked) was Mtb glucose medium: -16.83%; Mtb cholesterol medium: -20.59% & -11.32%.
Result for Cc1ccc(CNC(C)(C)c2noc(C(C)(C)C)n2)o1 was Mtb glucose medium: -0.2449%; Mtb cholesterol medium: 12.28%.
Result for CCc1ncc2c(n1)CN(Cc1nc(-c3cccnc3)no1)CC2 was Mtb glucose medium: 18.54%; Mtb cholesterol medium: -2.326%.
Result for CS(=O)(=O)CCNC(=O)NCCc1cc2ccccc2o1 was Mtb glucose medium: 8.358%; Mtb cholesterol medium: 21.88%.